Results on one molecule are retold here after patent US9617222B1, “Alkynyl indazole derivative and use thereof” (SENJU PHARMACEUTICAL CO., LTD., priority 2014, dated 2017).

The assay concerns Human Retinal Microvascular Endothelial (hRMVE) Cells (hRMVEC). The experiment in a line: Growth inhibition of hRMVE cells under VEGF stimulation (MTT assay). Type of assay: cell-based. As to conditions: recombinant human VEGF, 48 hours, read-out: Cell Growth Inhibition Activity. The method, then: Culture and passage of human retinal microvascular endothelial cells (Cell Systems Corporation, Human Retinal Microvascular Endothelial Cells, catalog number: ACBRI 181) were carried out according to the attached protocol. An adhesion factor solution (Cell Systems Corporation, Attachment Factor) was added to a 96-well plate (Iwaki Glass Co., Ltd.), fitted well, and then removed, so that the wells were coated. Subsequently, cells (hRMVEC) which were suspended in CS-C medium (Cell Systems Corporation, CS-C medium kit, catalog number: CS-4Z0-500R) containing serum, growth factors and Culture Boost were seeded at a density of 2×10^3 cells/100 μL/well, and cultured at 37° C. under 5% CO2 for 1 day. After that, the medium was removed from the hRMVEC, washed with PBS twice, and then cultured in CS-C medium (Cell Systems Corporation, CS-C medium kit, catalog number: CS-4Z3-500R) containing 1% FBS and a growth factor for 6 hours. […]
The cell number was measured by MTT assay (DOJINDO LABORATORIES: Cell Counting Kit-8 was used), and the growth inhibition rate of hRMVEC by the compound was calculated from the following calculation equation. Cell growth inhibition rate (%)=100−100×(absorbance of well to which the VEGF and compound are added−absorbance of well to which no VEGF is added)/(absorbance of well to which VEGF is added−absorbance of well to which no VEGF is added) […]
Background: Tetrazolium dyes change colour on reduction, which living cells bring about.

pIC50: −log10 of the molar value.

For `CNC(=O)c1ccccc1Sc1ccc2c(/C=C/c3ccccn3)n[nH]c2c1` [Compound A, 6-[2-(methylcarbamoyl)phenylsulfanyl]-3-E-[2-(pyridine-2-yl)ethenyl]indazole, reference compound], the pIC50 is 9.62.
